Experimental data published in PubChem BioAssay AID248 (DTP/NCI, 2004).
The list is a part of this screen's results and no random one: it gathers tests that were run many times, whatever their T/C, doses with no T/C, and many T/C values between a quarter and a half above the control. Further doses and runs are listed elsewhere. T/C is the treated group as % of the vehicle group. Some doses have a count of surviving animals in place of a T/C: the source holds a T/C of zero for them, seemingly a mark for toxic or unscored doses. Some survivor counts are full or nearly so, which does not show that the dose was tolerated: the source hardly ever lists a survival T/C far under the control, and the zero likely stands for such cases as well. Counts of survivors are from the toxicity check (mostly the fifth day) where no day follows; animals may have died later. Schedule codes are those of the source, taken here to give the interval after Q, in days (D) or hours (H), and the number of doses after X. For survival time, the PubChem record calls one and a half times the control and up active, and a quarter to a half above the control has no call in these data; cut-offs in other NCI protocols can differ. Some entries were tested several times; their values stand side by side, smallest first. Some T/C values are followed by the survivors on the day toxicity was checked, most often the fifth; where none is given, no animal had died by that day.

Test system: L1210 leukemia ip in BDF1 mice, survival T/C
Test: NCI In Vivo Anticancer Drug Screen. Data for tumor model L1210 Leukemia (intraperitoneal) in B6D2F1 (BDF1) mice
Details: higher T/C = longer survival
[1] = T/C endpoint: mean survival time, dose: 64.0 mg/kg/injection, schedule: Q01DX009 (ip), vehicle: Klucel (hydroxypropylcellulose) (HPC)
[2] = T/C endpoint: mean survival time, dose: 128.0 mg/kg/injection, schedule: Q01DX009 (ip), vehicle: Klucel (hydroxypropylcellulose) (HPC)

`COc1cc([C@@H]2c3cc4c(cc3[C@@H](OC3OC5COC(C)OC5C(O)C3O)[C@H]3COC(=O)[C@H]23)OCO4)cc(OC)c1O` (some centres not stated) was tested, and the T/C (T/C endpoint: mean survival time, dose: 2.0 mg/kg/injection, schedule: Q01DX009 (sc), vehicle: Klucel (hydroxypropylcellulose) (HPC)) was 126 % of control, the T/C (T/C endpoint: mean survival time, dose: 2.0 mg/kg/injection, schedule: Q01DX009 (sc), vehicle: clinical formulation) was 130 % of control [9 of 10 alive] and the T/C (T/C endpoint: mean survival time, dose: 4.0 mg/kg/injection, schedule: Q01DX009 (sc), vehicle: Klucel (hydroxypropylcellulose) (HPC)) was 137 % of control. For the same compound, the T/C (T/C endpoint: mean survival time, dose: 8.0 mg/kg/injection, schedule: Q01DX009 (sc), vehicle: Klucel (hydroxypropylcellulose) (HPC)) was 147 % of control, the T/C (T/C endpoint: mean survival time, dose: 16.0 mg/kg/injection, schedule: Q01DX001 (ip), vehicle: Klucel (hydroxypropylcellulose) (HPC), evaluated on day 30) was 191 % of control and the T/C (T/C endpoint: mean survival time, dose: 16.0 mg/kg/injection, schedule: Q01DX001 (ip), vehicle: Klucel (hydroxypropylcellulose) (HPC), evaluated on day 60) was 149, 166, 167 % of control. For the same compound, the T/C (T/C endpoint: mean survival time, dose: 16.0 mg/kg/injection, schedule: Q01DX009 (ip), vehicle: Klucel (hydroxypropylcellulose) (HPC), evaluated on day 30) was 111 % of control, the T/C (T/C endpoint: mean survival time, dose: 16.0 mg/kg/injection, schedule: Q01DX009 (ip), vehicle: Klucel (hydroxypropylcellulose) (HPC), evaluated on day 60) was 132 and 148 % of control and the survivor count (T/C endpoint: mean survival time, dose: 16.0 mg/kg/injection, schedule: Q01DX009 (ip), vehicle: Klucel (hydroxypropylcellulose) (HPC)) was 6 of 6. The T/C (T/C endpoint: mean survival time, dose: 16.0 mg/kg/injection, schedule: Q04DX003 (ip), vehicle: Klucel (hydroxypropylcellulose) (HPC), evaluated on day 30) was 208 % of control, the T/C (T/C endpoint: mean survival time, dose: 16.0 mg/kg/injection, schedule: Q04DX003 (ip), vehicle: Klucel (hydroxypropylcellulose) (HPC), evaluated on day 60) was 205, 286, 320 % of control and the T/C (T/C endpoint: mean survival time, dose: 32.0 mg/kg/injection, schedule: Q01DX001 (ip), vehicle: Klucel (hydroxypropylcellulose) (HPC), evaluated on day 30) was 223 % of control. The T/C (T/C endpoint: mean survival time, dose: 32.0 mg/kg/injection, schedule: Q01DX001 (ip), vehicle: Klucel (hydroxypropylcellulose) (HPC), evaluated on day 60) was 228, 267, 395 % of control, the T/C (T/C endpoint: mean survival time, dose: 32.0 mg/kg/injection, schedule: Q01DX001 (sc), vehicle: clinical formulation) was 127 % of control and the T/C (T/C endpoint: mean survival time, dose: 32.0 mg/kg/injection, schedule: Q01DX009 (ip), vehicle: Klucel (hydroxypropylcellulose) (HPC), evaluated on day 30) was 116 % of control. For the same compound, the T/C (T/C endpoint: mean survival time, dose: 32.0 mg/kg/injection, schedule: Q01DX009 (ip), vehicle: Klucel (hydroxypropylcellulose) (HPC), evaluated on day 60) was 91 and 104 % of control, the survivor count (T/C endpoint: mean survival time, dose: 32.0 mg/kg/injection, schedule: Q01DX009 (ip), vehicle: Klucel (hydroxypropylcellulose) (HPC)) was 5 of 6 and the survivor count (T/C endpoint: mean survival time, dose: 32.0 mg/kg/injection, schedule: Q01DX009 (oral), vehicle: clinical formulation) was 0 of 10. For the same compound, the T/C (T/C endpoint: mean survival time, dose: 32.0 mg/kg/injection, schedule: Q01DX009 (sc), vehicle: Klucel (hydroxypropylcellulose) (HPC)) was 130 % of control, the survivor count (T/C endpoint: mean survival time, dose: 32.0 mg/kg/injection, schedule: Q01DX009 (sc), vehicle: clinical formulation) was 10 of 10 and the T/C (T/C endpoint: mean survival time, dose: 32.0 mg/kg/injection, schedule: Q04DX003 (ip), vehicle: Klucel (hydroxypropylcellulose) (HPC), evaluated on day 30) was 335 % of control. For the same compound, the T/C (T/C endpoint: mean survival time, dose: 32.0 mg/kg/injection, schedule: Q04DX003 (ip), vehicle: Klucel (hydroxypropylcellulose) (HPC), evaluated on day 60) was 428 [9 of 10 alive], 484, 616 % of control, the T/C (T/C endpoint: mean survival time, dose: 60.0 mg/kg/injection, schedule: Q04DX003 (ip), vehicle: saline) was 147 % of control and the T/C (T/C endpoint: mean survival time, dose: 64.0 mg/kg/injection, schedule: Q01DX001 (ip), vehicle: Klucel (hydroxypropylcellulose) (HPC), evaluated on day 30) was 253 % of control. The T/C (T/C endpoint: mean survival time, dose: 64.0 mg/kg/injection, schedule: Q01DX001 (ip), vehicle: Klucel (hydroxypropylcellulose) (HPC), evaluated on day 60) was 405, 519, 524 % of control, the T/C (T/C endpoint: mean survival time, dose: 64.0 mg/kg/injection, schedule: Q01DX001 (sc), vehicle: Klucel (hydroxypropylcellulose) (HPC)) was 132 % of control and the T/C [1] was 136 % of control. The survivor count [1] was 6 of 6, the T/C (T/C endpoint: mean survival time, dose: 64.0 mg/kg/injection, schedule: Q01DX009 (oral), vehicle: Klucel (hydroxypropylcellulose) (HPC)) was 136 % of control and the survivor count (T/C endpoint: mean survival time, dose: 64.0 mg/kg/injection, schedule: Q01DX009 (oral), vehicle: clinical formulation) was 10 of 10. For the same compound, the T/C (T/C endpoint: mean survival time, dose: 64.0 mg/kg/injection, schedule: Q04DX003 (ip), vehicle: Klucel (hydroxypropylcellulose) (HPC), evaluated on day 30) was 120 % of control, the T/C (T/C endpoint: mean survival time, dose: 64.0 mg/kg/injection, schedule: Q04DX003 (ip), vehicle: Klucel (hydroxypropylcellulose) (HPC), evaluated on day 60) was 160, 260, 490 % of control and the T/C (T/C endpoint: mean survival time, dose: 128.0 mg/kg/injection, schedule: Q01DX001 (ip), vehicle: Klucel (hydroxypropylcellulose) (HPC), evaluated on day 30) was 287 % of control [4 of 6 alive]. For the same compound, the T/C (T/C endpoint: mean survival time, dose: 128.0 mg/kg/injection, schedule: Q01DX001 (ip), vehicle: Klucel (hydroxypropylcellulose) (HPC), evaluated on day 60) was 462 [9 of 10 alive], 600, 675 % of control, the T/C (T/C endpoint: mean survival time, dose: 128.0 mg/kg/injection, schedule: Q01DX001 (sc), vehicle: Klucel (hydroxypropylcellulose) (HPC)) was 142 % of control and the T/C (T/C endpoint: mean survival time, dose: 128.0 mg/kg/injection, schedule: Q01DX001 (sc), vehicle: clinical formulation) was 145 % of control. For the same compound, the T/C [2] was 129 % of control, the survivor count [2] was 4 of 6 and the T/C (T/C endpoint: mean survival time, dose: 128.0 mg/kg/injection, schedule: Q01DX009 (oral), vehicle: Klucel (hydroxypropylcellulose) (HPC)) was 143 % of control. For the same compound, the survivor count (T/C endpoint: mean survival time, dose: 128.0 mg/kg/injection, schedule: Q01DX009 (oral), vehicle: clinical formulation) was 9 of 10, the T/C (T/C endpoint: mean survival time, dose: 128.0 mg/kg/injection, schedule: Q04DX003 (ip), vehicle: Klucel (hydroxypropylcellulose) (HPC), evaluated on day 30) was 92 % of control and the T/C (T/C endpoint: mean survival time, dose: 128.0 mg/kg/injection, schedule: Q04DX003 (ip), vehicle: Klucel (hydroxypropylcellulose) (HPC), evaluated on day 60) was 94 [8 of 9 alive], 101, 119 % of control. The T/C (T/C endpoint: mean survival time, dose: 128.0 mg/kg/injection, schedule: Q04DX003 (oral), vehicle: Klucel (hydroxypropylcellulose) (HPC)) was 134 % of control, the survivor count (T/C endpoint: mean survival time, dose: 256.0 mg/kg/injection, schedule: Q01DX001 (ip), vehicle: Klucel (hydroxypropylcellulose) (HPC)) was 4 of 9 and the survivor count (T/C endpoint: mean survival time, dose: 256.0 mg/kg/injection, schedule: Q01DX009 (oral), vehicle: clinical formulation) was 10 of 10. The T/C (T/C endpoint: mean survival time, dose: 256.0 mg/kg/injection, schedule: Q04DX003 (oral), vehicle: Klucel (hydroxypropylcellulose) (HPC)) was 129 % of control, the survivor count (T/C endpoint: mean survival time, dose: 256.0 mg/kg/injection, schedule: Q08DX002 (ip), vehicle: Klucel (hydroxypropylcellulose) (HPC)) was 3 of 9 and the survivor count (T/C endpoint: mean survival time, dose: 512.0 mg/kg/injection, schedule: Q01DX009 (oral), vehicle: clinical formulation) was 8 of 10. The T/C (T/C endpoint: mean survival time, dose: 512.0 mg/kg/injection, schedule: Q04DX003 (oral), vehicle: Klucel (hydroxypropylcellulose) (HPC)) was 131 % of control, the survivor count (T/C endpoint: mean survival time, dose: 1024.0 mg/kg/injection, schedule: Q01DX001 (oral), vehicle: clinical formulation) was 1 of 10 and the survivor count (T/C endpoint: mean survival time, dose: 1024.0 mg/kg/injection, schedule: Q01DX009 (oral), vehicle: Klucel (hydroxypropylcellulose) (HPC)) was 8 of 10. The survivor count (T/C endpoint: mean survival time, dose: 1024.0 mg/kg/injection, schedule: Q01DX009 (oral), vehicle: clinical formulation) was 0 of 10, the T/C (T/C endpoint: mean survival time, dose: 1024.0 mg/kg/injection, schedule: Q04DX003 (oral), vehicle: Klucel (hydroxypropylcellulose) (HPC)) was 125 % of control and the T/C (T/C endpoint: median survival time, dose: 0.5 mg/kg/injection, schedule: Q01DX009 (ip), vehicle: saline) was 133 % of control. The T/C (T/C endpoint: median survival time, dose: 1.0 mg/kg/injection, schedule: Q01DX009 (ip), vehicle: saline) was 138 % of control and the T/C (T/C endpoint: median survival time, dose: 4.0 mg/kg/injection, schedule: Q01DX009 (sc), vehicle: Klucel (hydroxypropylcellulose) (HPC)) was 142 % of control.
For `O=C(O)C(O)C(O)C(O)C(O)C(O)CO.[Fe]` (configuration not stated), the survivor count (T/C endpoint: mean survival time, dose: 150.0 mg/kg/injection, schedule: Q01DX001 (ip), vehicle: saline) was 1 of 6 and the survivor count (T/C endpoint: mean survival time, dose: 300.0 mg/kg/injection, schedule: Q01DX001 (ip), vehicle: saline) was 0 of 6.
In the case of `CCOP(=S)(NN=C1CCC(C(C)(C)C)CC1)OCC` (configuration not stated), the survivor count (T/C endpoint: mean survival time, dose: 400.0 mg/kg/injection, schedule: Q01DX001 (ip), vehicle: saline) is reported as 1 of 4.
In the case of `[N-]=[N+]=C1C(C(=O)c2ccccc2)=NN=C1c1ccccc1`, the survivor count (T/C endpoint: mean survival time, dose: 400.0 mg/kg/injection, schedule: Q04DX003 (ip), vehicle: Klucel (hydroxypropylcellulose) (HPC)) is reported as 5 of 6.
For `CCCCC(=O)N1CCCC(C)C1` (configuration not stated), the survivor count (T/C endpoint: mean survival time, dose: 200.0 mg/kg/injection, schedule: Q04DX002 (ip), vehicle: Klucel (hydroxypropylcellulose) (HPC)) was 3 of 3 and the survivor count (T/C endpoint: mean survival time, dose: 400.0 mg/kg/injection, schedule: Q04DX002 (ip), vehicle: Klucel (hydroxypropylcellulose) (HPC)) was 1 of 3.
